In the supplement of paper PMC11006884:
Most of the targets with a hit are listed elsewhere, so they are rarer here than in the full data. Single values of this set are uncertain. This is a selection; strong and weak results do not stand in their true shares.

Protein sequences, listed by entry. Tags and fused reporters are not part of them. Lines headed by an entry give the natural chain unless they say otherwise; changes in a name come on top.
UniProt Q9Y490: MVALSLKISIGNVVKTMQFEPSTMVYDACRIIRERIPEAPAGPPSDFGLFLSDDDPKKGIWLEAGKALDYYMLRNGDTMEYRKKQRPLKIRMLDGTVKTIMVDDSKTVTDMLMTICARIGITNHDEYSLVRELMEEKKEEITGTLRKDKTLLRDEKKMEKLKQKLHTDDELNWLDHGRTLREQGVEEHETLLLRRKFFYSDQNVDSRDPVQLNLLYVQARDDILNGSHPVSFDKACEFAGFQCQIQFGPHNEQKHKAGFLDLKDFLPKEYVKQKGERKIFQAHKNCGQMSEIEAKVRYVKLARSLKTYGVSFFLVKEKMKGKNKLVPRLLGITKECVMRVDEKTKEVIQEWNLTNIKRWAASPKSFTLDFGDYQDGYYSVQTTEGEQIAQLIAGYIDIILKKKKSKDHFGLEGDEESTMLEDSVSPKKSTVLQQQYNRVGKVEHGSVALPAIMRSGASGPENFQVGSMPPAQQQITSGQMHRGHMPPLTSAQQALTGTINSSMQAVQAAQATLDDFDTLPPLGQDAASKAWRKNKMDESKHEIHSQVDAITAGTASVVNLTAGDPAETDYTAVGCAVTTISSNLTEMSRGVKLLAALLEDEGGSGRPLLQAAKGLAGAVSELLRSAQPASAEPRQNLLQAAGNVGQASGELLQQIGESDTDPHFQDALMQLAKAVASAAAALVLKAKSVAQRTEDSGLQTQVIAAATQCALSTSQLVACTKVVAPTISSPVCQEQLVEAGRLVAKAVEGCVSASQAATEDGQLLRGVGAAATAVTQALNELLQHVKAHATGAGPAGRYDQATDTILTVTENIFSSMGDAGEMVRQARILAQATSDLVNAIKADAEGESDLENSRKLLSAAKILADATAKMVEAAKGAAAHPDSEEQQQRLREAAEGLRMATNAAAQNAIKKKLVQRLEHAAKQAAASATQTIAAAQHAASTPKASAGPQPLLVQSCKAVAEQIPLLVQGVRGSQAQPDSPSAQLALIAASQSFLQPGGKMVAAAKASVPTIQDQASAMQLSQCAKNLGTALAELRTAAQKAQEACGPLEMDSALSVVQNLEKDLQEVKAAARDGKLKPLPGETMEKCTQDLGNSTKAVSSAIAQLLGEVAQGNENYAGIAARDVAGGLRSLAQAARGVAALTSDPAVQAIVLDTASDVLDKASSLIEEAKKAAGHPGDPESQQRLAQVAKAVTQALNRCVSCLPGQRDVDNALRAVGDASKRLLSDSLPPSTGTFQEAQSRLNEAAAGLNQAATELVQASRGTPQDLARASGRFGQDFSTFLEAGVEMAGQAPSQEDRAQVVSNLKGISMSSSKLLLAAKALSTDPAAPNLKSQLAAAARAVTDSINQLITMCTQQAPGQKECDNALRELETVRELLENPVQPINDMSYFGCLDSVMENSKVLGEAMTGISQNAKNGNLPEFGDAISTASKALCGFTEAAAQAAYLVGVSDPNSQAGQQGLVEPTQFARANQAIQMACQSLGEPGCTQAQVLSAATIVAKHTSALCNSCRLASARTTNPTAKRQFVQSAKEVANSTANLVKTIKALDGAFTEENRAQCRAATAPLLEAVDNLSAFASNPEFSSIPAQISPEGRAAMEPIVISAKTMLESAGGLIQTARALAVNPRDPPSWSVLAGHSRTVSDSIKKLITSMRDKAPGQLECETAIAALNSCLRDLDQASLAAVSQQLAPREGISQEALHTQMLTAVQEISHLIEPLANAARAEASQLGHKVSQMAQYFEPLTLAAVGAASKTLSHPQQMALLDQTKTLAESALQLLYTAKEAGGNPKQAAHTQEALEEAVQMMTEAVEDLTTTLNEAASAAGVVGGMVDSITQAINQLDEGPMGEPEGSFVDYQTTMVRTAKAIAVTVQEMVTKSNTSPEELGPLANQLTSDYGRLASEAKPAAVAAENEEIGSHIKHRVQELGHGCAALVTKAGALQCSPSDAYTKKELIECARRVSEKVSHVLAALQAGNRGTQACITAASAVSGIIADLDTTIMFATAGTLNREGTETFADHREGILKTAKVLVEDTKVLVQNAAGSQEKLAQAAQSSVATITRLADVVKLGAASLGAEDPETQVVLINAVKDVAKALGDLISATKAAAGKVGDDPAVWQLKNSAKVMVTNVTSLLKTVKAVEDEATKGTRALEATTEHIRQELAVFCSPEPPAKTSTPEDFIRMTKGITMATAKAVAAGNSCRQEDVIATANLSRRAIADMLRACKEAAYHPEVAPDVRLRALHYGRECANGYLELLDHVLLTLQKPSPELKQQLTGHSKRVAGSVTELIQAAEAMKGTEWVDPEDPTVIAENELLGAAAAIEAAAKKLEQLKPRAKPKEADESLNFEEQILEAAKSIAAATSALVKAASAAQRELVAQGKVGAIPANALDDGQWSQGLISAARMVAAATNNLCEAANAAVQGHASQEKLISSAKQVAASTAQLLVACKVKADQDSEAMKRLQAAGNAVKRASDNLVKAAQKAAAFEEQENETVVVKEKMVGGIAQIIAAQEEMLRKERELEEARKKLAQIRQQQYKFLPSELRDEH
UniProt Q9Y520: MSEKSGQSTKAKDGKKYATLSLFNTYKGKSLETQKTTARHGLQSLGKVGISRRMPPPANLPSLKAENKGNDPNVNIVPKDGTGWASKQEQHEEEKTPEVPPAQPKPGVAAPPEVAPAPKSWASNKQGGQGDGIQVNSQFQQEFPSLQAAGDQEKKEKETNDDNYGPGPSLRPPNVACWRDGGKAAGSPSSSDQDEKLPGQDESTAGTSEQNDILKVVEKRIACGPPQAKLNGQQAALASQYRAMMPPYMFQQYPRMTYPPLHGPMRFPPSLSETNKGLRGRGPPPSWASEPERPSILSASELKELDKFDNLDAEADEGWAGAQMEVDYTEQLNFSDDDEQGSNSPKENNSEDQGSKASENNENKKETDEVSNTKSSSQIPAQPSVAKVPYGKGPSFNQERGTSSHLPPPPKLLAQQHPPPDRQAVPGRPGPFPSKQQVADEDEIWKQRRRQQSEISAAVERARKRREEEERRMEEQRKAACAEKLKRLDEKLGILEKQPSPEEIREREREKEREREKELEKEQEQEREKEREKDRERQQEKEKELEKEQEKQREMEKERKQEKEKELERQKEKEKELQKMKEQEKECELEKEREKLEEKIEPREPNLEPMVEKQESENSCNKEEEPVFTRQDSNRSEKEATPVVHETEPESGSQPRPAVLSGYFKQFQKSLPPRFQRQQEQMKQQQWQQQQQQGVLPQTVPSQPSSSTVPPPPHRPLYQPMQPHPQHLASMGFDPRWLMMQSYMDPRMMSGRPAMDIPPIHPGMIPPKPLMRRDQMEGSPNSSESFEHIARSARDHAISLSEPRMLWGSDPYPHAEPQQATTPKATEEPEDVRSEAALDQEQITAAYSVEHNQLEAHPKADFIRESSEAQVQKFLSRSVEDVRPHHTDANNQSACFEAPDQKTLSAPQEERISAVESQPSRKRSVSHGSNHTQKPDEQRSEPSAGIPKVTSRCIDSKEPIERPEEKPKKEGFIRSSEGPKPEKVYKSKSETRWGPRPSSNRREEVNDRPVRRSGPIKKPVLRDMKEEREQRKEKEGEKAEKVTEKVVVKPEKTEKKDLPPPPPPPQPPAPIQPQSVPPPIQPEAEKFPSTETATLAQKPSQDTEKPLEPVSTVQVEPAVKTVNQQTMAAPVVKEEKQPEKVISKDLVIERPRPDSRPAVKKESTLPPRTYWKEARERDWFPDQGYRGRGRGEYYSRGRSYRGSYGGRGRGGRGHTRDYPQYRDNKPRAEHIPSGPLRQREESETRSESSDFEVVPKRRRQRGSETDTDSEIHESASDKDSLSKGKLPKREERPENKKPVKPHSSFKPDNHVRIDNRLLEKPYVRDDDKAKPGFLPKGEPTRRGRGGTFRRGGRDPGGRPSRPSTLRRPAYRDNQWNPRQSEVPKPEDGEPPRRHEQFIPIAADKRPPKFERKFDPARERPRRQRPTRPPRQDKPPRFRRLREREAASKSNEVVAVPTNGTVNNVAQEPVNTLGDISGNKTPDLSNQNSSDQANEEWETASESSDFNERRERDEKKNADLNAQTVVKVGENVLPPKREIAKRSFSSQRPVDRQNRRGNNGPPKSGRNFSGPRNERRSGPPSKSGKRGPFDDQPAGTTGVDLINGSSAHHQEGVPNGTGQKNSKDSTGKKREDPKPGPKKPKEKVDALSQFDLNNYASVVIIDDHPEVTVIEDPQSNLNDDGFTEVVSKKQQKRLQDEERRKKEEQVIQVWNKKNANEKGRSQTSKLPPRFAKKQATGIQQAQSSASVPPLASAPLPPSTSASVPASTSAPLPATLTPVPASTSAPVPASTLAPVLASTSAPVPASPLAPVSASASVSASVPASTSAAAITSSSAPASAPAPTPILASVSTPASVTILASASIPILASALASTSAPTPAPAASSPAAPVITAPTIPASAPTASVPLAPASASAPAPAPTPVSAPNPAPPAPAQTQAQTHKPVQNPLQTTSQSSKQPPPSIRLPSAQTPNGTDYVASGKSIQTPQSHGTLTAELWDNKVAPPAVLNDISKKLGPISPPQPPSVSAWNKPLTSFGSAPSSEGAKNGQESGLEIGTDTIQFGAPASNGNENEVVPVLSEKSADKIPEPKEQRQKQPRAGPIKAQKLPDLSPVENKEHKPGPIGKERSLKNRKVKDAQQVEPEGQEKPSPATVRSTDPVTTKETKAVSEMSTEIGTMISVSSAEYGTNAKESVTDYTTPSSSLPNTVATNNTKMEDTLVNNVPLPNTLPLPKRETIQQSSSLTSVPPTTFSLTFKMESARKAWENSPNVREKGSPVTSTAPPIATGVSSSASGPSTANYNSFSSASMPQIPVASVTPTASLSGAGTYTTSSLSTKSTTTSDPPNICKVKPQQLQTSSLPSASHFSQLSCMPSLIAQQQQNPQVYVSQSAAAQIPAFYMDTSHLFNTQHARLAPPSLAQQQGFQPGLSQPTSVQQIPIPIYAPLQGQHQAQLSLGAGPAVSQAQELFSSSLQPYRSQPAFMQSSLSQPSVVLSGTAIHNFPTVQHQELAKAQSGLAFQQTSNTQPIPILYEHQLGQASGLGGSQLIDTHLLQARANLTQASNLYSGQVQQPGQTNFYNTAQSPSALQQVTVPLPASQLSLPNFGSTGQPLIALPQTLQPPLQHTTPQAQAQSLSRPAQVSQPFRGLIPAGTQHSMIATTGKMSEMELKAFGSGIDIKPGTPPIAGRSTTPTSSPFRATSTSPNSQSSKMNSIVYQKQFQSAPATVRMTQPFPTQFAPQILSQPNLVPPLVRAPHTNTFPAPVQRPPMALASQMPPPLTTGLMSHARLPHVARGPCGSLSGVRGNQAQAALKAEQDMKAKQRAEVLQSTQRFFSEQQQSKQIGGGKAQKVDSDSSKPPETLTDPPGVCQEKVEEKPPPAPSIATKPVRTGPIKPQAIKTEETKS
UniProt Q9Y5X1: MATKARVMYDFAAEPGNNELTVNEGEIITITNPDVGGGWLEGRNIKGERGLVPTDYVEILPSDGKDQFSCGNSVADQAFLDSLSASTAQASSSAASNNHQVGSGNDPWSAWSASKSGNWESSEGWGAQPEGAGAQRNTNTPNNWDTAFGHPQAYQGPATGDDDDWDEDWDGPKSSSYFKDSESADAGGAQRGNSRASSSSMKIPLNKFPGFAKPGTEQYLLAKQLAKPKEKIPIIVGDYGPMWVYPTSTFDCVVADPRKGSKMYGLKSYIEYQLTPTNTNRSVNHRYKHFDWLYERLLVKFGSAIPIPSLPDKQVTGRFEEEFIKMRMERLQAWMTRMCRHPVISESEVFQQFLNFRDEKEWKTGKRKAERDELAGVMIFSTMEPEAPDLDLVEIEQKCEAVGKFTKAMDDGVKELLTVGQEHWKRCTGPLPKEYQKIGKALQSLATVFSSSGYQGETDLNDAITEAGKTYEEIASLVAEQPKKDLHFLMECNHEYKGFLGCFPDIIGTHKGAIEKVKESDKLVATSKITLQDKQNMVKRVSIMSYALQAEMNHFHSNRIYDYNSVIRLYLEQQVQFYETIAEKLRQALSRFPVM
UniProt Q9Y6B6: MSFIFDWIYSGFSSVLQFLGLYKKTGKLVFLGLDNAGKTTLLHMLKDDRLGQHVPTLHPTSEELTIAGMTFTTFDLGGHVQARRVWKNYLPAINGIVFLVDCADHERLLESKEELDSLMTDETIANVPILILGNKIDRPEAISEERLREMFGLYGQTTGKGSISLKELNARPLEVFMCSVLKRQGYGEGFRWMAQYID
UniProt Q9Y4Z0: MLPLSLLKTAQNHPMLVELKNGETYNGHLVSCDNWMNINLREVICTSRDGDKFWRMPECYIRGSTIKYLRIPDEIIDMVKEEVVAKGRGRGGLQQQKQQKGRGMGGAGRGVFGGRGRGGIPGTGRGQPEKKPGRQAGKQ

Compound: COC(=O)/C=C/c1ccccc1 [methyl cinnamate]
Assay: log2 ratio of iodoacetamide-alkyne labeling of the cysteine site, DMSO over compound (competition); higher = stronger covalent engagement of the cysteine by the compound, active = 1 or more
Conditions: 500 µM; treatment time 1 h; system: HEK293T cell lysate
Procedure, shortened: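 The log2 competition ratio per cysteine is defined as mean reporter intensity in control channels over mean reporter intensity in compound channels. Lysate from HEK293T cells (2 mg/mL) received electrophile (500 µM) or vehicle for 1 h at ambient temperature, followed by iodoacetamide alkyne for 1 h. Samples were clicked to sCIP-TMT reagents, pooled, trypsin-digested overnight at 37 °C, streptavidin-enriched, acid-eluted and run on Orbitrap Eclipse LC-MS/MS with FAIMS, with quantification in FragPipe. Three replicates with duplicate channels were used, and any cysteine quantified in only one replicate was excluded.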

log2 ratio of iodoacetamide-alkyne labeling, inactive:
ZHX2 C738 (UniProt Q9Y6X8) 0.22
TLN1 C29 (UniProt Q9Y490) 0.0605
UniProt Q9Y678_C325 -0.00202
TACC3 C20 (UniProt Q9Y6A5) 0.451
TELO2 C628 (UniProt Q9Y4R8) -0.232
UniProt Q9Y520_C177 0.377
TACC3 C459 (UniProt Q9Y6A5) 0.0308
UniProt Q9Y678_C706 -0.0308
SNX9 C252 (UniProt Q9Y5X1) -0.107
TLN1 C2243 (UniProt Q9Y490) 0.0684
PSAT1 C80 (UniProt Q9Y617) 0.0881
AFG3L2 C402 (UniProt Q9Y4W6) 0.0628
WASF2 C27 (UniProt Q9Y6W5) -0.301
ARIH1 C327 (UniProt Q9Y4X5) 0.287
SAR1B C178 (UniProt Q9Y6B6) 0.204
UniProt Q9Y520_C2340 0.384
LSM4 C45 (UniProt Q9Y4Z0) 0.267
IKBKG C347 (UniProt Q9Y6K9) 0.288
PPME1 C386 (UniProt Q9Y570) 0.241
PPME1 C238 (UniProt Q9Y570) 0.289
SAR1B C102 (UniProt Q9Y6B6) -0.484
UniProt Q9Y520_C223 0.239

Fetched one by one from above:
log2 ratio of iodoacetamide-alkyne labeling, inactive:
LSM4 C45 (UniProt Q9Y4Z0) 0.267
TLN1 C29 (UniProt Q9Y490) 0.0605
